The record followed here is article doi:10.1101/2025.08.01.668090.

Protein sequences, listed by entry. Tags and fused reporters are not part of them. Residues count along the entry.
UniProt O75381, residues 19-84: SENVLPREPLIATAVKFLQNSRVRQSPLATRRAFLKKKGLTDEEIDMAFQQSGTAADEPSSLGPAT

These are yes or no findings as the source states them, for the method shown. Some results given as binding are weak or reduced against the parent protein; the word gives no strength.

In the test the target is N-terminal domain of H. sapiens PEX14 (residues 19-84) (H. sapiens) (UniProt O75381). Briefly: AlphaScreen or HTRF. In general terms: In Alpha technology, singlet oxygen from a donor bead excites a nearby acceptor bead.

B1: biotinylated PEX5-derived peptide (…) (peptide)
peptide: ALSENWAQEFLA
modifications: biotinylated (position not given)
Regarding B1, the binding entry is “binds”.
